Reference: the supplement of paper PMC4604168 (melanoma cell lines)
The other results are listed elsewhere or left out. Single values are uncertain, as repeats are few or missing.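 Imaging used 1,536-well plates; nuclei positive for cleaved PARP by antibody were divided by total DNA-stained nuclei to yield the apoptosis fraction. Doses for screening kept most cells viable, and cell lines differ markedly in resting and induced cleaved-PARP levels.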

Key:
Test in all cases: cleaved PARP positive nuclei fraction relative to DMSO control; melanoma cells; higher = more apoptosis
Conditions in all cases: library dose: low library concentration; 72 h
WM115 = test system: WM115
WM1716 = test system: WM1716
WM1745 = test system: WM1745
WM3526 = test system: WM3526
WM3619 = test system: WM3619
WM451Lu = test system: WM451Lu

SMILES | cleaved PARP positive nuclei fraction (WM115) [%] | cleaved PARP positive nuclei fraction (WM1716) [%] | cleaved PARP positive nuclei fraction (WM1745) [%] | cleaved PARP positive nuclei fraction (WM3526) [%] | cleaved PARP positive nuclei fraction (WM3619) [%] | cleaved PARP positive nuclei fraction (WM451Lu) [%]
Cn1cnc2c(F)c(Nc3ccc(Br)cc3Cl)c(C(=O)NOCCO)cc21 [selumetinib] + C[C@@H](Oc1cc(-c2cnn(C3CCNCC3)c2)cnc1N)c1c(Cl)ccc(F)c1Cl [Crizotinib] (first compound 0.015 µM, partner dose 0.2 µM) | 125 | 785 | 112 | 97.2 | 90.7 | 69.6
NC(=O)c1ccc(N(C(N)=O)c2c(F)cccc2F)nc1-c1ccc(F)cc1F + Cc1cc(N2CCOCC2)cc2[nH]c(-c3c(NC[C@@H](O)c4cccc(Cl)c4)cc[nH]c3=O)nc12 [BMS536924] (first compound 0.4 µM, partner dose 0.2 µM) | 29.7 | 105 | 131 | 54 | 159 | 37
Cn1sc(=O)n(Cc2ccccc2)c1=O + CCCCCCCCc1ccc(CCC(N)(CO)CO)cc1 [fingolimod] (first compound 0.4 µM, partner dose 2 µM) | 242 | 479 | 99 | 44.5 | 98.1 | 85.1
C[C@]1(O)C[C@@H](c2nc(-c3ccc4ccc(-c5ccccc5)nc4c3)c3c(N)nccn32)C1 + CCCCCCCCc1ccc(CCC(N)(CO)CO)cc1 [fingolimod] (first compound 0.4 µM, partner dose 2 µM) | 133 | 93.6 | 144 | 218 | 79.8 | 44.9
COc1ccc(C2=N[C@@H](c3ccc(Cl)cc3)[C@@H](c3ccc(Cl)cc3)N2C(=O)N2CCNC(=O)C2)c(OC(C)C)c1 [Nutlin-3] + C=CCn1c(=O)c2cnc(Nc3ccc(N4CCN(C)CC4)cc3)nc2n1-c1cccc(C(C)(C)O)n1 [MK1775] (first compound 0.1 µM, partner dose 0.02 µM) | 179 | 156 | 119 | 69.4 | 134 | 52.5
C[C@]1(O)C[C@@H](c2nc(-c3ccc4ccc(-c5ccccc5)nc4c3)c3c(N)nccn32)C1 + Nc1nc(F)nc2c1ncn2[C@@H]1O[C@H](CO)[C@@H](O)[C@@H]1O [fludarabine] (first compound 0.4 µM, partner dose 0.2 µM) | 60.9 | 68.5 | 133 | 154 | 108 | 199
CC1(C)CCC(c2ccc(Cl)cc2)=C(CN2CCN(c3ccc(C(=O)NS(=O)(=O)c4ccc(N[C@H](CCN5CCOCC5)CSc5ccccc5)c(S(=O)(=O)C(F)(F)F)c4)cc3)CC2)C1 + N#Cc1c(O)c2c(-c3ccc(-c4ccccc4O)cc3)csc2[nH]c1=O [A769662] (first compound 0.4 µM, partner dose 2 µM) | 108 | 158 | 1320 | 27.7 | 108 | 56.8
CCCCCCCCc1ccc(CCC(N)(CO)CO)cc1 [fingolimod] + Nc1nc(F)nc2c1ncn2[C@@H]1O[C@H](CO)[C@@H](O)[C@@H]1O [fludarabine] (first compound 2 µM, partner dose 0.2 µM) | 118 | 1190 | 131 | 188 | 95.2 | 103
CS(=O)(=O)c1ccc(C(=O)Nc2ccc(Cl)c(-c3ccccn3)c2)c(Cl)c1 [vismodegib] + NCC(=O)Nc1ccc(-n2nc(C(F)(F)F)cc2-c2ccc3c(ccc4ccccc43)c2)cc1 [OSU03012] (first compound 1 µM, partner dose 1 µM) | 77.8 | 145 | 77.6 | 97.2 | 102 | 237
CCCCCCCCc1ccc(CCC(N)(CO)CO)cc1 [fingolimod] + COc1ccc(-c2ccc3c(N4CCOCC4)nc(N4C[C@@H](C)O[C@@H](C)C4)nc3n2)cc1CO [KU0063794] (first compound 2 µM, partner dose 0.02 µM) | 110 | 192 | 158 | 167 | 134 | 34.7
NC(=O)c1ccc(N(C(N)=O)c2c(F)cccc2F)nc1-c1ccc(F)cc1F + CC1(C)NC(=O)N(c2ccc([N+](=O)[O-])c(C(F)(F)F)c2)C1=O [nilutamide] (first compound 0.4 µM, partner dose 1 µM) | 82 | 123 | 88.4 | 80.3 | 85.5 | 172
C[C@]1(O)C[C@@H](c2nc(-c3ccc4ccc(-c5ccccc5)nc4c3)c3c(N)nccn32)C1 + Nc1ccn([C@@H]2O[C@H](CO)[C@@H](O)C2(F)F)c(=O)n1 [gemcitabine] (first compound 0.4 µM, partner dose 0.0004 µM) | 82.4 | 306 | 135 | 97.2 | 121 | 343
NC(=O)c1ccc(N(C(N)=O)c2c(F)cccc2F)nc1-c1ccc(F)cc1F + CO[C@@H]1[C@H](N(C)C(=O)c2ccccc2)C[C@H]2O[C@]1(C)n1c3ccccc3c3c4c(c5c6ccccc6n2c5c31)C(=O)NC4 [Midostaurin] (first compound 0.4 µM, partner dose 0.08 µM) | 95.1 | 80.5 | 100 | 40.1 | 87.9 | 99.6
CCCCCCCCc1ccc(CCC(N)(CO)CO)cc1 [fingolimod] + CO[C@@H]1[C@H](N(C)C(=O)c2ccccc2)C[C@H]2O[C@]1(C)n1c3ccccc3c3c4c(c5c6ccccc6n2c5c31)C(=O)NC4 [Midostaurin] (first compound 2 µM, partner dose 0.08 µM) | 35.1 | 148 | 131 | 69.4 | 217 | 217
CN(c1ncccc1CNc1nc(Nc2ccc3c(c2)CC(=O)N3)ncc1C(F)(F)F)S(C)(=O)=O + O=C1NC(=O)/C(=C/c2ccc(-c3ccc(F)cc3O)o2)S1 [AS252424] (first compound 0.08 µM, partner dose 1 µM) | 67.6 | 37.3 | 136 | 81 | 226 | 558
CCCCCCCCc1ccc(CCC(N)(CO)CO)cc1 [fingolimod] + C=CCNC1=C2C[C@@H](C)C[C@H](OC)[C@H](O)[C@@H](C)/C=C(\C)[C@H](OC(N)=O)[C@@H](OC)/C=C\C=C(/C)C(=O)NC(=CC1=O)C2=O [Tanespimycin] (first compound 2 µM, partner dose 0.002 µM) | 51.3 | 126 | 145 | 307 | 133 | 79
COc1ccc(C2=N[C@@H](c3ccc(Cl)cc3)[C@@H](c3ccc(Cl)cc3)N2C(=O)N2CCNC(=O)C2)c(OC(C)C)c1 [Nutlin-3] + CC(=O)O[C@@]12CO[C@@H]1C[C@H](O)[C@@]1(C)C(=O)[C@H](O)C3=C(C)[C@@H](OC(=O)[C@H](O)[C@@H](NC(=O)OC(C)(C)C)c4ccccc4)C[C@@](O)([C@@H](OC(=O)c4ccccc4)[C@H]21)C3(C)C [Docetaxel] (first compound 0.1 µM, partner dose 0.0001 µM) | 302 | 283 | 140 | 185 | 177 | 241
Cn1sc(=O)n(Cc2ccccc2)c1=O + Cc1cc([N+](=O)[O-])ccc1NS(=O)(=O)c1cc(Cl)ccc1Cl [FH535] (first compound 0.4 µM, partner dose 1 µM) | 165 | 121 | 83.5 | 73.3 | 111 | 111
CCN(CC)CCNC(=O)c1c(C)[nH]c(/C=C2\C(=O)Nc3ccc(F)cc32)c1C [sunitinib] + CC(=O)c1c(C)c2cnc(Nc3ccc(N4CCNCC4)cn3)nc2n(C2CCCC2)c1=O [palbociclib] (first compound 0.4 µM, partner dose 0.04 µM) | 76.2 | 71 | 131 | 107 | 90 | 53.7
CCN(CC)CCNC(=O)c1c(C)[nH]c(/C=C2\C(=O)Nc3ccc(F)cc32)c1C [sunitinib] + OCc1c[nH]c2ccccc12 [Indole-3-carbinol] (first compound 0.4 µM, partner dose 0.8 µM) | 137 | 58.8 | 132 | 314 | 68 | 58.1
Cn1cnc2c(F)c(Nc3ccc(Br)cc3Cl)c(C(=O)NOCCO)cc21 [selumetinib] + CS(=O)(=O)c1ccc(C(=O)Nc2ccc(Cl)c(-c3ccccn3)c2)c(Cl)c1 [vismodegib] (first compound 0.015 µM, partner dose 1 µM) | 164 | 182 | 108 | 37.3 | 124 | 22.7
C[C@@H](N)c1ccc(C(=O)Nc2ccnc3[nH]ccc23)cc1 + Clc1ccc(Nc2nnc(Cc3ccncc3)c3ccccc23)cc1 [vatalanib] (first compound 0.4 µM, partner dose 2 µM) | 123 | 180 | 117 | 55.6 | 148 | 296
C[C@@H](N)c1ccc(C(=O)Nc2ccnc3[nH]ccc23)cc1 + NC(=O)Nc1cc(-c2cccc(F)c2)sc1C(=O)N[C@H]1CCCNC1 [AZD7762] (first compound 0.4 µM, partner dose 0.02 µM) | 32.7 | 220 | 122 | 26.9 | 246 | 55.7
C[C@]1(O)C[C@@H](c2nc(-c3ccc4ccc(-c5ccccc5)nc4c3)c3c(N)nccn32)C1 + COc1ccc2c(c1)CCC1C2CCC2(C)C(NCCCCCCN3C(=O)C=CC3=O)CCC12 [U73122] (first compound 0.4 µM, partner dose 0.4 µM) | 102 | 66.9 | 102 | 106 | 128 | 485

Part of the list above, as comma-separated lines.
SMILES,cleaved PARP positive nuclei fraction (WM115) [%],cleaved PARP positive nuclei fraction (WM1716) [%],cleaved PARP positive nuclei fraction (WM1745) [%],cleaved PARP positive nuclei fraction (WM3526) [%],cleaved PARP positive nuclei fraction (WM3619) [%],cleaved PARP positive nuclei fraction (WM451Lu) [%]
"Cn1sc(=O)n(Cc2ccccc2)c1=O + CCCCCCCCc1ccc(CCC(N)(CO)CO)cc1 [fingolimod] (first compound 0.4 µM, partner dose 2 µM)",242,479,99,44.5,98.1,85.1
"C[C@]1(O)C[C@@H](c2nc(-c3ccc4ccc(-c5ccccc5)nc4c3)c3c(N)nccn32)C1 + CCCCCCCCc1ccc(CCC(N)(CO)CO)cc1 [fingolimod] (first compound 0.4 µM, partner dose 2 µM)",133,93.6,144,218,79.8,44.9
